Consider one sequence from publication PMC3741180, “A Novel High Throughput Biochemical Assay to Evaluate the HuR Protein-RNA Complex Formation” (PLoS ONE, 2013).

Protein sequences, listed by entry. Tags and fused reporters are not part of them.
UniProt Q15717, whole entry: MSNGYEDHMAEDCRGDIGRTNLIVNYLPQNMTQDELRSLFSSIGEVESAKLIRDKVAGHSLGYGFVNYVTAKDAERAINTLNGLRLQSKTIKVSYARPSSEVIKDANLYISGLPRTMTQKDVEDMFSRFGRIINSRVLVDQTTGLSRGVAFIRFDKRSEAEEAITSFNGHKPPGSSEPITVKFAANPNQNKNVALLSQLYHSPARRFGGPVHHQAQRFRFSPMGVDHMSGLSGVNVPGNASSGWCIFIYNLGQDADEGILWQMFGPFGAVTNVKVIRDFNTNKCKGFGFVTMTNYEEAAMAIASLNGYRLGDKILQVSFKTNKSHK

pKd: −log10 of the molar value. Construct, isoform or probe ends are uncertain for at least one entry. For some assays here: At least one verdict was read from the data and is not stated in words by the source.

The target of data set [1] is rHuR (HuR-Myc-His) (Homo sapiens) (UniProt Q15717). In words: EMSA. The note with it: 0.2 uM rHuR, 0.5 uM probe, complex influenced by mitoxantrone and cetylpyridinium chloride (0.5 uM), AlphaScreen: 25 mM HEPES pH 7.4, 100 mM NaCl, 0.1% BSA, room temperature, REMSA: 20 mM HEPES pH 7.5, 50 mM KCl, 0.5 ug BSA, 0.25% glycerol, recombinant protein, residues 1-326, protein details: C-terminal c-Myc and His6, label: 5'-biotin.

In data set [2] the target is P-rHuR (phosphorylated rHuR) (Homo sapiens) (UniProt Q15717). The data set is described as follows: AlphaScreen saturation binding. The note with it: CsA-induced phosphorylation, not different from rHuR (P=0.59), AlphaScreen: 25 mM HEPES pH 7.4, 100 mM NaCl, 0.1% BSA, room temperature, REMSA: 20 mM HEPES pH 7.5, 50 mM KCl, 0.5 ug BSA, 0.25% glycerol, recombinant protein, residues 1-326, protein details: C-terminal c-Myc and His6, label: 5'-biotin.

For AUUAUUUAUUAUUUAUUUAUUAUUUA [Bi-TNF], the binding result in data set [1] is given as “binds”. In addition, the negative-log Kd (pKd) in data set [2] was 8.51.
